# Measured values as given in patent US11592453B2, “Personalized metabolomic profiling of specialized pro-resolving mediators” (THE BRIGHAM AND WOMEN'S HOSPITAL, INC., priority 2016, dated 2023).
# Tested on: prostaglandin, thromboxane and SPM production in human whole blood
# Assay: LM metabololipidomics of human whole blood during coagulation in the presence of indomethacin
# Assay type: cell-based
# Details: mean of six donors; for LM concentration Avg, Indomethacin t = 0 h: 0 h after coagulation in the presence of indomethacin; for LM concentration Avg, Indomethacin t = 0.25 h: 0.25 h after coagulation in the presence of indomethacin; for LM concentration Avg, Indomethacin t = 0.5 h: 0.5 h after coagulation in the presence of indomethacin; for LM concentration Avg, Indomethacin t = 1 h: 1 h after coagulation in the presence of indomethacin; for LM concentration Avg, Indomethacin t = 3 h: 3 h after coagulation in the presence of indomethacin; for LM concentration Avg, Indomethacin t = 6 h: 6 h after coagulation in the presence of indomethacin; for LM concentration Avg, Indomethacin t = 24 h: 24 h after coagulation in the presence of indomethacin
# Description: FIG. 8 illustrates SPM formation in human blood clots being regulated by lipoxygenase activity. (A and B) Freshly drawn human peripheral blood (4 ml) was placed in silicone-coated tubes at 37° C. for 24 hours and coagulation was stopped by snap-freezing before LC-MS/MS analysis was performed. Concentrations of total SPMs, prostaglandins, and thromboxanes after 24 hours of coagulation (Coag.) in the presence or absence of (A) 100 μM indomethacin (Indo.) (n=six individual donors), (B) 500 nM celecoxib (CLX) or 20 μM BAI (n=three individual donors). Data are means±SEM; *P<0.05 for +BAI vs. Coag; ****P<0.0001 for +Indo vs. Coag. using ratio t-test.
# Human whole blood was transferred in 4-ml aliquots to negatively charged, silicone-coated 10-ml tubes (BD) without anticoagulant. For experiments with heparin, the heparinized blood was placed in 15-ml polypropylene tubes before incubation at 37° C. For LM profiling at designated times, all samples were immediately subjected to a workup procedure by which whole blood was snap-frozen in a dry ice/isopropanol bath and were returned to room temperature (×3 cycles) before undergoing centrifugation at 100,000 g at 4° C. Supernatants (and clots for select experiments; see FIG. 6) were collected and were subjected to LC-MS/MS LM metabololipidomics.
# To obtain a complete blood profile of eicosanoids and SPMs each sample was subjected to a procedure involving snap-freezing of whole blood that was then thawed to room temperature three times and centrifuged at 100,000 g at 4 °C for 30 min before undergoing solid-phase extraction (SPE). Internal standards including d8-5-HETE, d5-RvD2, d5-LXA4, d4-LTB4, and d4-PGE2 (500 pg each; Cayman Chemical) were added together with four volumes of methanol to facilitate protein precipitation. […] Before elution, LM bound to the SPE matrix were neutralized with ddH2O. Methyl formate fractions from the SPE were brought to dryness under a gentle stream of nitrogen and resuspended in 1:1 methanol:water before injection into a liquid chromatography-tandem mass spectrometry system consisting of a QTrap 5500 (AB Sciex) equipped with a Shimadzu LC-20AD HPLC (Tokyo, Japan). A Poroshell 120 EC-18 column (100 mm×4.6 mm×2.7 μm; Agilent Technologies) was kept in a column oven maintained at 50° C., and lipid mediators (LMs) were eluted in a gradient of methanol/water/acetic acid from 55:45:0.01 (v/v/v) to 100:0:0.01 at a flow rate of 0.5 ml/min. To monitor and quantify the amounts of lipid mediators of interest, multiple reaction monitoring (MRM) was used with MS/MS matching signature ion fragments for each molecule (at least six diagnostic ions; ˜0.1 pg limits of detection as described previously (15)]. PCA was performed as described previously (15) with SIMCA software, version 13.0.3. Calibration curves were obtained daily from authentic (nonsynthetic) standards and matrix suppression for each targeted LM in snap-frozen blood, and supernatants determined and used for recovery and quantitation.
SMILES,"LM concentration Avg, Indomethacin t = 0 h [pg/mL]","LM concentration Avg, Indomethacin t = 0.25 h","LM concentration Avg, Indomethacin t = 0.5 h","LM concentration Avg, Indomethacin t = 1 h [pg/mL]","LM concentration Avg, Indomethacin t = 3 h [pg/mL]","LM concentration Avg, Indomethacin t = 6 h [pg/mL]","LM concentration Avg, Indomethacin t = 24 h [pg/mL]"
CC/C=C\C/C=C\C/C=C\C/C=C\C/C=C\C=C\C(O)CCC(=O)O (stereo not drawn) [4-HDHA],8.5,10.7 pg/mL,11.3 pg/mL,11.8,17.1,26.6,42.3
"CC/C=C\C/C=C\C[C@H](O)/C=C/C=C\C/C=C\C=C\[C@@H](O)CCC(=O)O [4S,14S-diHDHA]",2.8,3.2 pg/mL,3.0 pg/mL,2.5,9.0,12.2,15.7
CC/C=C\C/C=C\C/C=C\C/C=C\C=C\C(O)CCCC(=O)O (stereo not drawn) [5-HEPE],2.5,3.7 pg/mL,6.6 pg/mL,7.7,13.1,15.0,23.3
CCCCC/C=C\C/C=C\C/C=C\C=C\[C@@H](O)CCCC(=O)O [5-HETE],15.5,19.7 pg/mL,51.0 pg/mL,61.4,122.6,145.2,148.7
"CCCCC/C=C\C[C@H](O)/C=C/C=C\C=C\[C@@H](O)CCCC(=O)O [5S,12S-diHETE]",1.2,1.3 pg/mL,3.7 pg/mL,3.4,12.1,14.4,19.0
"CCCCC[C@H](O)/C=C/C=C\C/C=C\C=C\[C@@H](O)CCCC(=O)O [5S,15S-diHETE, 5S,15S-dihydroxy-eicosa-6E, 8Z, 11Z, 13E-tetraenoic acid]",0.5,0.7 pg/mL,1.2 pg/mL,1.3,4.2,8.0,14.4
CC/C=C\C/C=C\C/C=C\C/C=C\C=C\C(O)C/C=C\CCC(=O)O (stereo not drawn) [7-HDHA],1.4,1.6 pg/mL,1.9 pg/mL,2.1,3.6,4.3,6.2
"CC/C=C\C/C=C\C[C@H](O)/C=C/C=C\C=C\[C@@H](O)C/C=C\CCC(=O)O [7S,14S-diHDHA]",0.7,— ((—) denotes concentrations <0.1 pg/ml),— ((—) denotes concentrations <0.1 pg/ml),0.2,0.4,3.4,1.0
"CC/C=C\C[C@H](O)/C=C/C=C\C=C\[C@@H](O)C/C=C\C/C=C\CCC(=O)O [10S,17S-diHDHA]",0.3,0.4 pg/mL,0.4 pg/mL,0.4,1.5,3.6,5.5
CC/C=C\C/C=C\CC(O)/C=C/C=C\C/C=C\CCCC(=O)O (stereo not drawn) [12-HEPE],1380.0,1964.3 pg/mL,2794.9 pg/mL,3115.6,11334.7,12955.2,16008.6
CCCCC/C=C\C[C@H](O)/C=C/C=C\C/C=C\CCCC(=O)O [12-HETE],1270.4,2311.5 pg/mL,3820.5 pg/mL,5159.5,6782.9,7205.4,8564.0
CC/C=C\C/C=C\CC(O)/C=C/C=C\C/C=C\C/C=C\CCC(=O)O (stereo not drawn) [14-HDHA],485.7,491.0 pg/mL,436.3 pg/mL,430.6,987.4,1218.7,1492.9
CC/C=C\CC(O)/C=C/C=C\C/C=C\C/C=C\CCCC(=O)O (stereo not drawn) [15-HEPE],25.2,37.2 pg/mL,44.9 pg/mL,55.9,238.4,339.7,504.7
CCCCC[C@H](O)/C=C/C=C\C/C=C\C/C=C\CCCC(=O)O [15-HETE],68.0,97.7 pg/mL,191.0 pg/mL,303.6,694.4,1016.8,1498.0
CC/C=C\CC(O)/C=C/C=C\C/C=C\C/C=C\C/C=C\CCC(=O)O (stereo not drawn) [17-HDHA],16.2,18.9 pg/mL,19.7 pg/mL,25.5,62.7,95.8,179.7
CCC(O)/C=C/C=C\C/C=C\C/C=C\C/C=C\CCCC(=O)O (stereo not drawn) [18-HEPE],39.8,64.4 pg/mL,85.1 pg/mL,103.7,301.2,393.8,721.1
O=C(O)CCC[C@H](O)\C=C/C=C/C=C/[C@H](O)C/C=C\CCCCCO [20-OH-LTB4],0.2,0.7 pg/mL,2.6 pg/mL,8.2,14.0,20.2,21.3
"CCCCC/C=C\C/C=C\C/C=C\C/C=C\CCCC(=O)O [AA, arachidonic acid]",6677.3,13096.4 pg/mL,17559.7 pg/mL,20436.6,25625.0,26651.4,31800.5
